# Measurements from PubChem BioAssay (EPA / NIEHS).
# Chains of the proteins cited; added tags and fusions are not shown. Lines headed by an entry give the natural chain unless they say otherwise; changes in a name come on top.
# UniProt P33261, whole entry, looked up: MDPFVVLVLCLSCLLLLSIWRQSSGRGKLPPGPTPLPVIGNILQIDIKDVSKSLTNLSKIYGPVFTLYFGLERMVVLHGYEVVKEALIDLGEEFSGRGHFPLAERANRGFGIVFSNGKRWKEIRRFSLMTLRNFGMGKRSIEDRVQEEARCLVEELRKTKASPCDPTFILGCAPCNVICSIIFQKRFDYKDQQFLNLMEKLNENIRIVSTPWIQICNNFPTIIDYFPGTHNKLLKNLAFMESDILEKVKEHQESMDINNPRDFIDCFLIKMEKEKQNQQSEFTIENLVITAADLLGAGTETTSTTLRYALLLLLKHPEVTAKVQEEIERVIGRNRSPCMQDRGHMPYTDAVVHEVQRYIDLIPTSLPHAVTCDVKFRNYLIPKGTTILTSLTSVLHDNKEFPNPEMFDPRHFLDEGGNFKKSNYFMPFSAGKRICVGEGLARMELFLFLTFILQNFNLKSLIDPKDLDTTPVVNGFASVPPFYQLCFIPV
# UniProt Q5TCH4: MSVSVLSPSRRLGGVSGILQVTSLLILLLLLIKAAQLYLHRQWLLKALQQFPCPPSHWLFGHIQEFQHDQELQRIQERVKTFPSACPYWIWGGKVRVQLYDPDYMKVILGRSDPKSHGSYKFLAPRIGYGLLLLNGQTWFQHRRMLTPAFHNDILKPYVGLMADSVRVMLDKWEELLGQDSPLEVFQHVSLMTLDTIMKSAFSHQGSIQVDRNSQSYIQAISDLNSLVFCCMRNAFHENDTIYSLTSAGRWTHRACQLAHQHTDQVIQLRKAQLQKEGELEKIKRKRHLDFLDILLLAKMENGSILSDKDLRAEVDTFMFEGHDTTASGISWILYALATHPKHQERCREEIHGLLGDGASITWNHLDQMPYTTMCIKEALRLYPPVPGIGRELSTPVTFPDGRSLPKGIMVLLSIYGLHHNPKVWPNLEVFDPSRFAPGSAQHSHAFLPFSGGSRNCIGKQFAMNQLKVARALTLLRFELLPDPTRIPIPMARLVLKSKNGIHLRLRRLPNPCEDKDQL
# For some assays here: What follows is the remainder of the data, with few or none of the hits. Only a part is listed here, and it is no random draw. Inconclusive results are not listed. The source made the active and inactive calls. The calls were made as follows, unless noted: active = hit-call score of the fitted dose curve at least 0.9, where 1 is the maximum; inactive = score below 0.9.
# Columns and labels:
# [1] = CEETOX_H295R_CORTISOL: CeeTox H295R High-throughput Steroidogenesis Assay for Cortisol (AID 2283438); settings: actives raise or lower the signal;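 also: cortisol secreted into medium quantified by LC-MS/MS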
# In short: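 H295R human adrenal cells were prestimulated 48 h with 10 uM forskolin, then exposed 48 h to test chemical (0.1% DMSO final). Medium cortisol was quantified by HPLC-MS/MS after MTBE extraction; bidirectional fitting relative to DMSO baseline.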
# [2] = CEETOX_H295R_ESTRADIOL: CeeTox H295R High-throughput Steroidogenesis Assay for Estradiol (AID 2283440); settings: actives raise or lower the signal;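 also: estradiol secreted into medium quantified by LC-MS/MS after dansyl derivatisation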
# In short: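 H295R cells pre-stimulated 48 h with 10 uM forskolin, then exposed 48 h to chemical in 0.1% DMSO. Medium estradiol quantified by MTBE extraction, dansyl derivatisation and HPLC-MS/MS; bidirectional fit versus DMSO; MTT viability required >/=70%.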
# [3] = CEETOX_H295R_ESTRONE: CeeTox H295R High-throughput Steroidogenesis Assay for Estrone (AID 2283441); settings: actives raise or lower the signal;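 also: estrone secreted into medium measured by LC-MS/MS after dansyl derivatization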
# In short: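 H295R cells; 48 h forskolin (10 uM) prestimulation; 48 h compound exposure, 0.1% DMSO final. Medium estrone: MTBE extraction, dansyl derivatization, HPLC-MS/MS. Bidirectional fit vs DMSO.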
# [4] = read-out: Alpha-fetoprotein (AFP) gene, AFP (gene 174); experiment: LTEA_HepaRG_AFP: Life Technologies and Expression Analysis (LTEA) Assay for Alpha-fetoprotein (AFP) gene using HepaRG (AID 2283472); settings: actives raise or lower the signal; mRNA level, 48 h
# [5] = read-out: Cytochrome P450 2C19 (Homo sapiens) (UniProt P33261); experiment: LTEA_HepaRG_CYP2C19: Life Technologies and Expression Analysis (LTEA) Assay for CYP2C19 using HepaRG (AID 2283482); settings: actives raise or lower the signal; mRNA level, 48 h
# In short: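 Differentiated HepaRG cells in serum-free induction medium exposed 48 h in duplicate, 8 concentrations from 100 uM by half-log steps in 0.5% DMSO. CYP2C19 mRNA measured by TaqMan qRT-PCR, normalized to ACTB, GAPDH, POLR2A. Bidirectional fit versus DMSO.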
# [6] = CCTE_Simmons_CellTiterGLO_HEK293T: Viability Assessment in CCTE's Assays for Thyroperoxidase (TPO) Inhibition, Simmons Lab (AID 2283665; active = hit-call score of the fitted dose curve at least 0.9, where 1 is the maximum;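 also: cells exposed to compound for 24 h before readout; actives reduce ATP signal below DMSO vehicle meaning cytotoxicity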)
# In short: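 HEK293T cells in DMEM with 1% FBS were dosed with 8 concentrations (5 nM–87.5 uM final, 0.5% DMSO) for 24 hr at 37C; ATP content was read by CellTiter-Glo luminescence, loss-of-signal versus DMSO, three biological replicates.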
# [7] = read-out: ATP-citrate lyase (ACLY), ACLY (gene 47); experiment: LTEA_HepaRG_ACLY: Life Technologies and Expression Analysis (LTEA) Assay for ATP-citrate lyase (ACLY) using HepaRG (AID 2283466); settings: actives raise or lower the signal; mRNA level, 48 h
# In short: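 Differentiated HepaRG cells exposed 48 h in serum-free induction medium to eight half-log concentrations up to 100 uM in 0.5% DMSO, duplicates. Transcript measured by Fluidigm TaqMan qRT-PCR, normalized to ACTB, GAPDH, POLR2A; bidirectional fit versus DMSO.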
# [8] = read-out: Alkaline Phosphatase, Placental (ALPP) gene, ALPP (gene 250); experiment: LTEA_HepaRG_ALPP: Life Technologies and Expression Analysis (LTEA) Assay for Alkaline Phosphatase, Placental (ALPP) gene using HepaRG (AID 2283468); settings: actives raise or lower the signal; mRNA level, 48 h;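 also: differentiated human HepaRG liver cells in serum-free induction medium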
# In short: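 HepaRG cells plated 48 h, then exposed in duplicate for 48 h in serum-free induction medium to 8-point half-log series from 100 uM in 0.5% DMSO. ALPP mRNA by TaqMan qRT-PCR, normalized to ACTB/GAPDH/POLR2A; bidirectional fit versus DMSO.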
# [9] = read-out: Cytochrome P450 (CYP24A1), CYP24A1 (gene 1591); experiment: LTEA_HepaRG_CYP24A1: Life Technologies and Expression Analysis (LTEA) Assay for Cytochrome P450 (CYP24A1) using HepaRG (AID 2283478); settings: actives raise or lower the signal; mRNA level, 48 h
# In short: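 HepaRG cells plated 48 h, then exposed in duplicate in serum-free induction medium for 48 h to 8-point half-log series from 100 uM in 0.5% DMSO. CYP24A1 mRNA by Fluidigm qRT-PCR, normalized to ACTB, GAPDH, POLR2A; bidirectional fit versus DMSO.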
# [10] = read-out: Pro-epidermal growth factor (Homo sapiens) (UniProt P01133); experiment: LTEA_HepaRG_EGF: Life Technologies and Expression Analysis (LTEA) Assay for Epidermal growth factor (EGF) using HepaRG (AID 2283489); settings: actives raise or lower the signal; mRNA level, 48 h
# In short: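 HepaRG cells (~100,000/well, 48 h pre-culture) exposed in duplicate for 48 h in serum-free induction medium to 8 half-log concentrations up to 100 uM in 0.5% DMSO. EGF mRNA by qRT-PCR, normalized to ACTB/GAPDH/POLR2A; bidirectional fit versus DMSO.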
# [11] = read-out: Cytochrome P450 4A22 (Homo sapiens) (UniProt Q5TCH4); experiment: LTEA_HepaRG_CYP4A22: Life Technologies and Expression Analysis (LTEA) Assay for Cytochrome P450 4A22 (CYP4A22) using HepaRG (AID 2283495); settings: actives raise or lower the signal; mRNA level, 48 h
# In short: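 Differentiated HepaRG cells in serum-free induction medium exposed 48 h in duplicate to eight half-log concentrations up to 100 uM in 0.5% DMSO. CYP4A22 mRNA quantified by TaqMan qRT-PCR, normalized to ACTB, GAPDH and POLR2A; bidirectional fit versus DMSO.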
# HGF (gene 3082) = experiment: LTEA_HepaRG_HGF: Life Technologies and Expression Analysis (LTEA) Assay for Hepatocyte Growth Facto (HGF) using HepaRG (AID 2283505); settings: actives raise or lower the signal; mRNA level, 48 h
# In short: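 Differentiated HepaRG cells in serum-free induction medium exposed 48 h in duplicate, 8 half-log concentrations from 100 uM in 0.5% DMSO. HGF mRNA by qRT-PCR, normalised to ACTB, GAPDH, POLR2A; bidirectional fitting.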
# [12] = read-out: ABC Transporter (ABCC2), ABCC2 (gene 1244); experiment: LTEA_HepaRG_ABCC2: Life Technologies and Expression Analysis (LTEA) Assay for ABC Transporter (ABCC2) using HepaRG (AID 2283464); settings: actives raise or lower the signal; mRNA level, 48 h
# In short: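 Differentiated HepaRG cells in serum-free induction medium exposed 48 h to eight half-log concentrations up to 100 uM, 0.5% DMSO, in duplicate. ABCC2 mRNA measured by qRT-PCR (TaqMan, Fluidigm), normalized to ACTB, GAPDH and POLR2A. Fitted in both directions against DMSO.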
# [13] = read-out: Cyclin D2 (CCND2), CCND2 (gene 894); experiment: LTEA_HepaRG_CCND2: Life Technologies and Expression Analysis (LTEA) Assay for Cyclin D2 (CCND2) using HepaRG (AID 2283449); settings: actives raise or lower the signal; mRNA level, 48 h;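 also: CCND2 transcript measured by TaqMan qRT-PCR and normalised to three housekeeping genes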
# In short: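 Chemicals in 0.5% DMSO, eight half-log concentrations from 100 uM top, were applied in duplicate for 48 h to human HepaRG cells in serum-free induction medium. CCND2 mRNA by TaqMan qRT-PCR, normalised to ACTB/GAPDH/POLR2A; bidirectional fit versus DMSO.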
# [14] = read-out: Phosphatase and tensin (PTEN), PTEN (gene 5728); experiment: LTEA_HepaRG_PTEN: Life Technologies and Expression Analysis (LTEA) Assay for Phosphatase and tensin (PTEN) using HepaRG (AID 2283523); settings: actives raise or lower the signal; mRNA level, 48 h
# In short: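 HepaRG cells, 48 h after plating, exposed in duplicate for 48 h in serum-free induction medium to 8 half-log concentrations up to 100 uM (0.5% DMSO). PTEN mRNA by qRT-PCR, normalized to ACTB, GAPDH, POLR2A; bidirectional fit versus DMSO.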
smiles,measurement,setting,value
CCc1ccc(CCOc2ccc(CC3SC(=O)NC3=O)cc2)nc1 (configuration not stated),outcome,[1],inactive
same,outcome,[2],inactive
same,outcome,[3],inactive
same,AC50,[4],active: 63.7 µM
same,AC50,[5],active: 11.9 µM
Cc1[nH]cnc1C[C@H]1CCc2c(C)c3ccccc3n2C1=O,AC50,[4],active: 20.5 µM
same,AC50,[6],active: 33.5 µM
O=C(NO)C1(NS(=O)(=O)c2ccc(Oc3ccc(F)cc3)cc2)CCOCC1,outcome,[7],inactive
CC(=O)N1CCN(c2ccc(OC[C@H]3CO[C@](Cn4ccnc4)(c4ccc(Cl)cc4Cl)O3)cc2)CC1,AC50,[8],active: 15.2 µM
same,outcome,[9],inactive
same,outcome,[10],inactive
same,AC50,[11],active: 15.8 µM
same,AC50,HGF (gene 3082),active: 15.8 µM
O=C(O)CC(O)(CC(=O)O)C(=O)O,outcome,[12],inactive
CC(N)=O,outcome,[13],inactive
same,outcome,HGF (gene 3082),inactive
same,outcome,[14],inactive
